# Assay results

The results are deposited in PubChem (AID504749; NCATS, 2011).

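A panel of P. falciparum strains inside erythrocytes is exposed to compounds for three days, then a DNA-binding dye reports the amount of parasite DNA. Each compound was titrated across a series from about 0.000037 to 29 µM. The number is the fitted AC50, the concentration giving a half-maximal change in signal; a lower value means higher potency, whether the curve shows a decrease or an increase. Calls follow the curve class and fit quality: every row here is inconclusive, covering signal-raising curves and weak, poorly fitted, partial or highest-dose-only inhibition curves.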

Values are in µM. All entries here are filed as inconclusive. Only part of the assay is shown, chiefly results filed as inconclusive. Potencies fitted to partial, single-point or poorly fitting curves are rough. Some entries filed as inconclusive have a full curve. The first word of each remark tells which way the curve ran; it can be opposite to the aim of the assay.

SMILES | tested on / at | potency (µM) | curve
CN(C)CCOC(c1ccccc1)c1ccccc1 | CP256 | 2.512 | inhibitor, partial curve
CN(C)CCOC(c1ccccc1)c1ccccc1 | PC15 | 2.512 | inhibitor, partial curve
CN(C)CCOC(c1ccccc1)c1ccccc1 | AA1029 | 1.778 | inhibitor, partial curve
CN(C)CCOC(c1ccccc1)c1ccccc1 | CP252 | 2.512 | inhibitor, partial curve
F[Si-2](F)(F)(F)(F)F | W2 | 0.6746 | inhibitor, full curve
F[Si-2](F)(F)(F)(F)F | CP262 | 3.381 | activator, partial curve, poor fit
CNC(=O)Oc1ccccc1C(=O)Nc1ccccc1 | DIV14 | 12 | inhibitor, partial curve
CNC(=O)Oc1ccccc1C(=O)Nc1ccccc1 | TAB165 | 11.22 | inhibitor, single point
CNC(=O)Oc1ccccc1C(=O)Nc1ccccc1 | DIV17 | 16.94 | inhibitor, single point
CNC(=O)Oc1ccccc1C(=O)Nc1ccccc1 | CP262 | 4.776 | inhibitor, partial curve, poor fit
CNC(=O)Oc1ccccc1C(=O)Nc1ccccc1 | N140 | 7.08 | inhibitor, partial curve
CNC(=O)Oc1ccccc1C(=O)Nc1ccccc1 | P94_40 | 10 | inhibitor, single point
CNC(=O)Oc1ccccc1C(=O)Nc1ccccc1 | PC26 | 16.94 | inhibitor, single point
CNC(=O)Oc1ccccc1C(=O)Nc1ccccc1 | CP315 | 6.746 | inhibitor, partial curve, poor fit
CNC(=O)Oc1ccccc1C(=O)Nc1ccccc1 | CP215 | 16.94 | inhibitor, single point
CNC(=O)Oc1ccccc1C(=O)Nc1ccccc1 | CP194 | 16.94 | inhibitor, single point
CNC(=O)Oc1ccccc1C(=O)Nc1ccccc1 | SC27B | 12.59 | inhibitor, partial curve
CNC(=O)Oc1ccccc1C(=O)Nc1ccccc1 | ATS95 | 12.59 | inhibitor, single point
CNC(=O)Oc1ccccc1C(=O)Nc1ccccc1 | P93_24 | 14.13 | inhibitor, single point
CNC(=O)Oc1ccccc1C(=O)Nc1ccccc1 | TAB109 | 8.912 | inhibitor, single point
CNC(=O)Oc1ccccc1C(=O)Nc1ccccc1 | CP297 | 16.94 | inhibitor, partial curve, poor fit
CNC(=O)Oc1ccccc1C(=O)Nc1ccccc1 | TAB113 | 17.78 | inhibitor, single point
CNC(=O)Oc1ccccc1C(=O)Nc1ccccc1 | DIV30 | 19.01 | inhibitor, single point
CNC(=O)Oc1ccccc1C(=O)Nc1ccccc1 | AS120 | 10 | inhibitor, single point
CNC(=O)Oc1ccccc1C(=O)Nc1ccccc1 | ATS189 | 15.85 | inhibitor, single point
CNC(=O)Oc1ccccc1C(=O)Nc1ccccc1 | PC49 | 8.912 | inhibitor, partial curve
CNC(=O)Oc1ccccc1C(=O)Nc1ccccc1 | Dd2 | 12.59 | inhibitor, single point
CNC(=O)Oc1ccccc1C(=O)Nc1ccccc1 | CP256 | 10 | inhibitor, single point
NC[C@@H]1O[C@H](O[C@@H]2[C@H](O[C@@H]3O[C@H](CO)[C@@H](O)[C@@H]3O)[C@@H](O)[C@@H](N)C[C@H]2N)[C@@H](N)[C@H](O)[C@@H]1O | CP215 | 8.087 | inhibitor, single point
NC[C@@H]1O[C@H](O[C@@H]2[C@H](O[C@@H]3O[C@H](CO)[C@@H](O)[C@@H]3O)[C@@H](O)[C@@H](N)C[C@H]2N)[C@@H](N)[C@H](O)[C@@H]1O | 7G8 | 3.548 | inhibitor, single point
Cc1cccc(C)c1NC1=NCCCS1 | CP203 | 6.012 | inhibitor, partial curve, poor fit
Cc1cccc(C)c1NC1=NCCCS1 | CP305 | 12 | inhibitor, partial curve, poor fit
Cc1cccc(C)c1NC1=NCCCS1 | PC26 | 5.358 | inhibitor, partial curve
Cc1cccc(C)c1NC1=NCCCS1 | DFO2036 | 14.13 | inhibitor, single point
Cc1cccc(C)c1NC1=NCCCS1 | CP269 | 13.46 | inhibitor, single point
Cc1cccc(C)c1NC1=NCCCS1 | TAB165 | 7.08 | inhibitor, partial curve
Cc1cccc(C)c1NC1=NCCCS1 | DIV17 | 15.1 | inhibitor, single point
Cc1cccc(C)c1NC1=NCCCS1 | CP260 | 8.912 | inhibitor, single point
Cc1cccc(C)c1NC1=NCCCS1 | CP201 | 6.746 | inhibitor, partial curve, poor fit
Cc1cccc(C)c1NC1=NCCCS1 | P93_24 | 8.912 | inhibitor, single point
Cc1cccc(C)c1NC1=NCCCS1 | CP325 | 8.492 | inhibitor, single point